Literature values as cited in patent US20040229873A1, “Treatment of neurodegenerative conditions” (BTG International Limited, priority 2003, published 2004).
Some entries share one result that the patent states for a list of compounds.

System: white matter axons
Conditions: rat optic nerve in vitro, oxygen and glucose deprivation; Garthwaite et al (1999); cited from earlier work

Compound | dose related neuroprotection of white matter
Nc1nnc(-c2cccc(Cl)c2Cl)c(N)n1 [Lamotrigine, 3,5-diamino-6-(2,3-dichlorophenyl)-1,2,4-triazine] | up to 90%
CN1CCN(c2ncc(-c3cc(Cl)cc(Cl)c3Cl)c(N)n2)CC1 [Sipatrigine, 4-amino-2-(4-methyl-1-piperazinyl)-5-(2,3,5-trichlorophenyl)-pyrimidine] | up to 90%
